SMILES strings stand for the structures. The list shows a part of the results. The main result of the screen is listed elsewhere. These columns were measured beside it and carry no call. Compounds called inactive in the main read-out are mostly missing here. Words in brackets tell the shape of the fitted curve; partial curves, single points and poor fits give uncertain potencies.

This assay is described as follows: qHTS Assay for Modulators of Lamin A Splicing. The note with it: HeLa LMNA splicing GFP/RFP minigene ratio, 48 h. The method, boiled down:
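S3 HeLa cells stably expressing lamin A-EGFP splicing minigene plus DsRed2, 600 cells/well, 48 h compound exposure at 37C. Laser-scanning cytometry; analysed as GFP (500-530 nm)/RFP (575-640 nm) total intensity ratio; 0.5% DMSO vehicle.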
A general note: In qHTS, concentration-response curves come from the screen itself.

Setting [1] is: measured here: GFP splicing reporter channel.
Where [2] appears, read: measured here: RFP viability control channel.

For the molecule `CC(=O)Oc1ccc(C(=O)[C@H]2[C@H]3C(=O)N(c4ccc(C)cc4)C(=O)[C@H]3[C@@H]3C=CC=NN32)cc1`, the AC50 (commonly the concentration giving half of the maximal activity seen) reads like this: under setting [1], 0.126 µM [rising, full curve, poor fit]; under setting [2], 0.178 µM [rising, full curve, poor fit].
For `CCCCSc1cnn(-c2ccccc2)c(=O)c1SCCCC`, the AC50 under setting [1] is 15.8 µM [rising, single point] and the AC50 under setting [2] was 31.6 µM [rising, single point].
In the case of `CCOC(=O)CN(C(=O)CSc1nnc(-c2ccc(OC)c(OC)c2)o1)c1ccccc1`, under setting [2], the AC50 was 11.2 µM [rising, partial curve, poor fit].
For `Cc1ccc(S(=O)(=O)CCSc2nc(C)cc(C(F)(F)F)c2C#N)cc1`, the concentration at half-maximal activity (AC50) under setting [2] is 35.5 µM [falling, single point].
Turning to `O=C(CN1CCOCC1)N/N=C/c1ccco1`, the AC50 runs as follows: under setting [1], 0.0224 µM [falling, full curve, poor fit]; under setting [2], 0.631 µM [falling, full curve, poor fit].
Consider `COC(=O)C1=CN(CC2CCCO2)C=C(C(=O)OC)C1c1cc(OC)c(OC)c(OC)c1` (stereo unspecified), for which the AC50 under setting [1] was 11.2 µM [rising, single point].
For the molecule `CCN1CCN(c2ncc3c(n2)CCN(Cc2cc(F)cc(F)c2)C3)CC1`, the AC50 under setting [2] was 1.26 µM [rising, full curve, poor fit].
As to `O=C(N[C@@H](Cc1ccccc1)C(=O)CCl)OCc1ccccc1`, the AC50 is 2 µM [falling, full curve] under setting [1] and 1.78 µM [falling, full curve] under setting [2].
On to `COc1ccc(C(=O)/C=C/C(=O)N(Cc2ccccc2OC)C(C(=O)NC2CCCCC2)c2ccncc2)c(O)c1` (stereo unspecified), for which the AC50 under setting [2] was 12.6 µM [rising, partial curve, poor fit].
With `CCOC(=O)c1c(C)sc(-c2c(-c3cccc(Cl)c3)[nH]c3c2c(=O)n(C)c(=O)n3C)c1O`, the AC50 was 6.31 µM [rising, single point] under setting [1] and 7.08 µM [falling, single point] under setting [2].
As for `COc1ccc(NC(=O)C2=C(C)Nc3ncnn3C2c2ccc[nH]2)cc1` (stereo unspecified), the AC50 under setting [2] is 3.98 µM [rising, full curve, poor fit].
Regarding `CCNc1ncc2nc(CCc3ccccc3)c(=O)n(C[C@H]3CCCO3)c2n1`, the AC50 was 17.8 µM [falling, partial curve] under setting [1] and 12.6 µM [falling, partial curve] under setting [2].
Consider `O=C(CCCC(=O)N1CCN(c2ccccc2F)CC1)N1CCN(c2ccccc2F)CC1`, for which the AC50 is 31.6 µM [rising, single point] under setting [1] and 20 µM [rising, single point] under setting [2].
As to `CCCn1c(CC)nc([N+](=O)[O-])c1S(=O)(=O)c1ccccc1`, the concentration at half-maximal activity (AC50) reads like this: under setting [1], 7.94 µM [falling, partial curve]; under setting [2], 10 µM [falling, partial curve].
On to `COc1cc(C)ccc1OCCOCCOc1ccc(C)cc1[N+](=O)[O-]`, for which the AC50 under setting [2] is 3.98 µM [rising, full curve, poor fit].
As for `N#C/C(=C\c1ccco1)c1nc2ccccc2s1`, the AC50 under setting [2] was 22.4 µM [rising, single point].
In the case of `O=C(CN(Cc1ccco1)C(=O)CCC(=O)Nc1nccs1)NCc1ccccc1`, the AC50 under setting [2] is 2 µM [rising, partial curve, poor fit].
Regarding `O=C(CSc1nnc(NC(=O)c2ccccc2Cl)s1)Nc1ccc2c(c1)oc1ccccc12`, under setting [1], the half-maximal activity concentration (AC50) is 0.794 µM [rising, partial curve, poor fit].
With `C=Cc1ccc(Cn2ccn(-c3ccc(F)c(F)c3)c(=O)c2=O)cc1`, the AC50 under setting [2] was 12.6 µM [rising, single point].
On to `CCc1nnc(NC(=O)c2nc3nc(C)cc(C)n3n2)s1`, for which the AC50 runs as follows: under setting [1], 3.98 µM [falling, partial curve]; under setting [2], 3.16 µM [falling, partial curve, poor fit].
For `COc1ccc(/C=N/NC(=O)CCn2c3ccccc3c3ccccc32)cc1O`, the AC50 under setting [2] was 5.01 µM [rising, full curve].
As for `CCc1ccc(NC(=O)C(=O)NCc2ccccn2)cc1`, the AC50 is, setting by setting: under setting [1], 5.62 µM [falling, partial curve]; under setting [2], 3.55 µM [falling, full curve, poor fit].
As to `Cn1c(=O)c2[nH]c(CNCc3ccccc3Cl)nc2n(C)c1=O`, the AC50 under setting [2] is 35.5 µM [rising, single point].
As for `CCCCCCCCNC(=O)/C(C#N)=C/c1ccccc1[N+](=O)[O-]`, the AC50 under setting [1] was 35.5 µM [falling, single point] and the AC50 under setting [2] is 35.5 µM [falling, single point].
As for `COc1cc(CNCc2ccco2)ccc1OCc1ccccc1`, under setting [1], the AC50 was 35.5 µM [rising, partial curve].
Regarding `COc1ccccc1Nc1nc(N)nc(CN2CCC(C)CC2)n1`, the AC50 under setting [1] is 8.91 µM [falling, partial curve, poor fit].
With `Cc1ccc(C)c(S(=O)(=O)Nc2cc(SCC(=O)O)c(O)c3ccccc23)c1`, the AC50 reads like this: under setting [1], 35.5 µM [falling, single point]; under setting [2], 25.1 µM [falling, single point].
Consider `CC(/C=C/c1ccc(N(C)C)cc1)=N\N=C1\NC(=O)CC(C(=O)Nc2ccccc2)S1` (stereo unspecified), for which the AC50 under setting [2] was 4.47 µM [rising, partial curve].
For the molecule `COc1ccc(OC)c(NC(=O)C2C3CCC(O3)C2C(=O)O)c1` (stereo unspecified), the AC50 is 0.0891 µM [falling, partial curve, poor fit] under setting [1] and 0.355 µM [falling, partial curve, poor fit] under setting [2].
`O=C(CNC(=O)c1cccc(F)c1)N/N=C/c1cc(Br)ccc1OCc1ccccc1`: under setting [2], the AC50 was 15.8 µM [rising, single point].
Regarding `Cc1cccc(C)c1OCCCCc1c(C)n[nH]c1C`, the AC50 by setting is: under setting [1], 12.6 µM [rising, partial curve]; under setting [2], 15.8 µM [rising, single point].
With `CC(C)CNC(=O)CN(c1cccc(Cl)c1)S(C)(=O)=O`, under setting [1], the AC50 is 0.00398 µM [rising, full curve, poor fit].
For the molecule `CSc1nsc(/C=C/Nc2cccc(Cl)c2)c1C#N`, the AC50 was 25.1 µM [rising, single point] under setting [1] and 35.5 µM [rising, single point] under setting [2].
In the case of `Cc1cc(C)nc(SCNC(=O)c2ccc(F)cc2)n1`, the AC50 is 35.5 µM [falling, single point] under setting [1] and 31.6 µM [falling, single point] under setting [2].
On to `CCOC(=O)C1=C(C)NC(=O)NC1c1ccc(OC)c(CN2CCOCC2)c1` (stereo unspecified), for which, under setting [2], the AC50 was 10 µM [rising, single point].
Regarding `O=C(c1cccc(S(=O)(=O)N2CCc3ccccc3C2)c1)N1CCN(c2ccccc2)CC1`, the AC50 is 11.2 µM [rising, partial curve] under setting [1] and 15.8 µM [rising, partial curve] under setting [2].
`CCOc1ccc(C2=NNC(c3cccs3)=Nc3ccc(OC)cc32)cc1OCC`: under setting [2], the AC50 is 12.6 µM [rising, single point].
On the same count and under the same terms, the value for `CC(C)(C)NC(=O)N1CCC(C(=O)O)CC1` was 7.94 µM [falling, partial curve, poor fit]; that for `CCCC(=O)Nc1c(C(=O)OCC)oc2ccccc12` was 0.141 µM [falling, partial curve, poor fit].
For `COc1ccc(OC)c(C2C=C(c3ccc(C)c(C)c3)Nc3nnnn32)c1` (stereo unspecified), under setting [2], the AC50 was 1 µM [rising, partial curve].
Same read-out and setting: to `C[C@@H]1CC[C@H]2C(=O)N3[C@@H](CC[C@@H](C)[C@@H]3c3ccc(Br)cc3)C(=O)N2[C@H]1c1ccc(Br)cc1` belongs 12.6 µM [rising, partial curve]; to `O=C1NCCc2c1[nH]c1ccc([N+](=O)[O-])cc21`, 0.1 µM [falling, full curve, poor fit].
Still for that read-out and setting: to `COc1ccccc1CNC(=O)CCC1N=C2c3ccccc3N=C(SCc3ccc(Cl)cc3)N2C1=O` (stereo unspecified) belongs 0.02 µM [falling, full curve, poor fit]; to `Cc1cccc(Oc2nc(-c3ccccn3)nc3ccccc23)c1`, 15.8 µM [rising, single point].
Regarding `Cc1cccc(C(=O)NNC(=O)c2cc3cc4ccccc4nc3s2)c1`, the AC50 under setting [1] was 14.1 µM [falling, single point] and the AC50 under setting [2] is 22.4 µM [falling, single point].
Regarding `O=C(N1CCN(Cc2ccccc2)CC1)C(Cl)(Cl)Cl`, the concentration at half-maximal activity (AC50) under setting [2] is 15.8 µM [rising, single point].
For `O=[N+]([O-])c1ccc(CSc2nc3ccccc3o2)cc1`, the AC50 was 0.355 µM [rising, single point] under setting [1] and 35.5 µM [rising, single point] under setting [2].
On to `CC(C)Cc1nc2ccccc2n1CCc1ccccc1`, for which the AC50 runs as follows: under setting [1], 12.6 µM [rising, single point]; under setting [2], 35.5 µM [rising, single point].
On to `Cc1cnc(C(=O)N2CCCC(C(=O)c3ccc(Cl)cc3C)C2)cn1` (stereo unspecified), for which the AC50 is 0.355 µM [falling, full curve, poor fit] under setting [1] and 11.2 µM [falling, partial curve, poor fit] under setting [2].
`O=C(CCC(=O)Nc1ccc(Cl)cc1Cl)N/N=C/c1ccc([N+](=O)[O-])o1`: the AC50 under setting [1] was 3.16 µM [rising, single point].
Turning to `COc1ccccc1-c1nnc(Nc2nc3c(OC)cccc3s2)o1`, the AC50 under setting [2] was 0.178 µM [rising, full curve, poor fit].
Consider `CC1(C)C(=O)N(CC(=O)Nc2ccc(Cl)cc2)c2ccccc21`, for which the AC50 under setting [1] is 0.0251 µM [falling, full curve, poor fit] and the half-maximal activity concentration (AC50) under setting [2] was 0.0447 µM [falling, full curve, poor fit].
As to `O=C(Nc1cccc(C(=O)O)c1)Nc1ccccc1Cl`, the AC50 was 2 µM [falling, partial curve, poor fit] under setting [1] and 0.112 µM [falling, full curve, poor fit] under setting [2].

The values are drawn from PubChem BioAssay AID1487 (National Center for Advancing Translational Sciences (NCATS), 2009).
